# Biological target: hTRF2 full-length (Homo sapiens) (UniProt Q15554)
# Amino acid sequences for entries named in this document (tags omitted). Residues count along the entry.
# UniProt Q15554, 43-542: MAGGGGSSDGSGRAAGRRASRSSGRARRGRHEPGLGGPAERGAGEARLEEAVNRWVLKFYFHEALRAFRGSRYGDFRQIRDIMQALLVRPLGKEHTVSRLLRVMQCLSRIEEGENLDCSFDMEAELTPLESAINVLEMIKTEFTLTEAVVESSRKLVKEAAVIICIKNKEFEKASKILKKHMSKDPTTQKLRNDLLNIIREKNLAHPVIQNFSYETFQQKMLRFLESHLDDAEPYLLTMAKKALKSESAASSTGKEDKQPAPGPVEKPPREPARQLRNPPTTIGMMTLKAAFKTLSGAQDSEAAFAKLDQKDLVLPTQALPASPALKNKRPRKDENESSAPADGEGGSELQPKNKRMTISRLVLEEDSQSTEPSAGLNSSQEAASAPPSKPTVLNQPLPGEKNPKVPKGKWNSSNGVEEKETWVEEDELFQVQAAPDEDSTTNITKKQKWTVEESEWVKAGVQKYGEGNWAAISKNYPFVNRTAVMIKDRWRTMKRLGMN
# Assay: magnetic tweezers force-extension
# Conditions: compaction at 20-50 nM, 150 mM KCl, compaction abolished in 300 mM KCl without dissociation; Magnetic tweezers: 150 mM KCl (stretching); recombinant protein; residues 43-542; protein details: N-terminal His6 removed by TEV; label: 5' biotin and 3' thiol via ligated handles
sequence,measurement,value
CCATCGACATGGGAGCTCGCGTTGATGCATGTATGTCCCGGGTTAGGGTTAGGGTTAGGGTTAGGGTTAGGGTTAGGGTTAGGGTTAGGGTTAGGGTTAGGGTTAGGGTTAGGGTTAGGGTTAGGGTTAGGGTTAGGGTTAGGGTTAGGGTTAGGGTTAGGGTTAGGGTTAGGGTTAGGGTTAGGGTTAGGGTTATAAGTGTTGCTGCAGCCATGTCGATGG (double strand) [25-repeat telomeric dsDNA (200 bp)],binding result,binds
